Where a SMILES comes first, the peptide text is derived from it. [ ]: non-standard residue; d: D form. The star is where a group is joined. X1 = O=C(c1ccc(-c2cc(-c3ccccn3)nc(-c3ccccn3)c2)cc1)*; Ahx = NCCCCCC(=O)O
Test system: A549 cells
Assay: Co-localization studies with MitoTracker Deep Red and LysoTracker Green in A549 cells
Format: cell-based

N=C(N)NCCC[C@@H](NC(=O)[C@@H](CCCNC(=N)N)NC(=O)[C@@H](CCCNC(=N)N)NC(=O)[C@@H](CCCNC(=N)N)NC(=O)CCCCCNC(=O)c1ccc(-c2cc(-c3ccccn3)nc(-c3ccccn3)c2)cc1)C(N)=O [[Os-(R4)2]^10+] ({X1-Ahx}-[dR][dR][dR][dR]-NH2) was tested, and the “Pearson's coefficient, co-localization with MitoTracker Deep Red” value (A549 cells, 30 μM/24 h, MitoTracker Deep Red 100 nM) was 0.56, the Subcellular distribution (A549 cells, 30 μM/48 h, co-staining with Lysotracker Green) was “localization of the conjugate in lysosomal structures” and the “Pearson's coefficient, co-localization with Lysotracker Green” value (live A549 cells, 30 μM, 48 h, Lysotracker Green 50 nM) was 0.69.

— publication PMC8277133, “Os(II)-Bridged Polyarginine Conjugates: The Additive Effects of Peptides in Promoting or Preventing Permeation in Cells and Multicellular Tumor Spheroids” (Inorganic Chemistry, 2021)
